Measurements published in PMC3989768, “Activation of the γ-Tubulin Complex by the Mto1/2 Complex” (Current Biology, 2014).
These are yes or no findings as the source states them, for the method shown. For part of these data: Binding seen in cells or lysates may run through a third protein. Some results given as binding are weak or reduced against the parent protein; the word gives no strength. For part of these data: Where a sequence is shown, tags or fusion partners need not be part of it. Values belong to the binder of their own block, whether it stands above or below them.

Legend:
[1] = target: Mto2 (two differently tagged copies: Mto2-13myc and 6His-FLAG-GFP-Mto2) (Schizosaccharomyces pombe) (UniProt Q9USP7); assay: co-IP; 6His-FLAG-GFP-Mto2 precipitated from mto1+ and mto1Δ cell extracts; western blots probed with antibodies against GFP, Myc and Mto1
[2] = target: T1, Mto1 (in the Mto1/2 complex isolated from cells) (Schizosaccharomyces pombe) (UniProt O94488); assay: co-IP; Mto1/2 complex isolated from cells by immunoprecipitation (Figure S3A)
T1 sequence: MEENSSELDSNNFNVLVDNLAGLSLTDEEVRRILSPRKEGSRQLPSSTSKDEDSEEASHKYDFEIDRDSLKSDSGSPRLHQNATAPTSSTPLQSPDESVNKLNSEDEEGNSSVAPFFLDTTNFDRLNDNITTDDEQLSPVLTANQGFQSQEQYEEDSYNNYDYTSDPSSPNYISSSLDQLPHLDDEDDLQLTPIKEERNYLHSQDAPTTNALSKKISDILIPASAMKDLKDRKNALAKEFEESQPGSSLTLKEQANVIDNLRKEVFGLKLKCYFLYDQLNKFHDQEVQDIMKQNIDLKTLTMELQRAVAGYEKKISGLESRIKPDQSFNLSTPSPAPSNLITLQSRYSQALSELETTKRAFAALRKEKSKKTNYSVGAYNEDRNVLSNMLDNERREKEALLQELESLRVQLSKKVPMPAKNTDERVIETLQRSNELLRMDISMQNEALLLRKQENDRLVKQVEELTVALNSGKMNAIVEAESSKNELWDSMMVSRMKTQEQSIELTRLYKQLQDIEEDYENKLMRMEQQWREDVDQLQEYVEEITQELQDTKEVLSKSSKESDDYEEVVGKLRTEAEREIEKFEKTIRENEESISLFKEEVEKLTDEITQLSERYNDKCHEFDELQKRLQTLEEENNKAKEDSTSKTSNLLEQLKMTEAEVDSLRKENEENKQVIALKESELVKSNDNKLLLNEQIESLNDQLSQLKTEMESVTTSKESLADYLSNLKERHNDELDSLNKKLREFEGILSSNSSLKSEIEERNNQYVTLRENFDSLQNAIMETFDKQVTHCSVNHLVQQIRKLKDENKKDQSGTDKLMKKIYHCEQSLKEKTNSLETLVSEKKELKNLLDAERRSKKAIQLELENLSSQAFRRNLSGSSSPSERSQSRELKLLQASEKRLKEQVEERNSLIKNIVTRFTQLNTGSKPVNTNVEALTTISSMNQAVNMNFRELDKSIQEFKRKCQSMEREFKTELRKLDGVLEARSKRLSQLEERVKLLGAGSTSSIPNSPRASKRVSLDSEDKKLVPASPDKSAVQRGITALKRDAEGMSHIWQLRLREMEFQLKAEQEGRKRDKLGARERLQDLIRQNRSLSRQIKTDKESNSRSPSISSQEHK

[3] = target: Mto2-SZZ (Schizosaccharomyces pombe) (UniProt Q9USP7); assay: glycerol density-gradient centrifugation; cell lysates of mto1[9A1-bonsai]-GFP and mto1Δ cells; isokinetic glycerol gradient, 2.5 hr or 45 min; quantitative western blotting

binding [1]: binds
B1: Mto2 (two differently tagged copies: Mto2-13myc and 6His-FLAG-GFP-Mto2) (protein, UniProt Q9USP7 1-397)
chain: MSEHNYQSDREVAEDPFLNYEASANQLSSNSRESTPRGSPWRAGMRSASLMTEPLEDSMYSDNNYLDNGVSFTKDENPLYSPSWPSLADANVNSMKSNNAIQEHKAAKFVSEKSLEKVSTADNNLVLQELENLRERLNQVELQLSERPSSYLGYHNNLSPYRSPNSYPSLLPSTHSPHSPAPLSTMQTALMRLRTYHPSPIILKPVEQAVNHAITLVNTSPSSVVDALCRSLAELCLGLVQEAIDASILSQQESSNSLDLVRHTPPLNYTSSVDSSPQRMASDSYGRPSLHLNDPFPSVDLQSNELSHHNVRTTLFSDDSRFHSKIHTHSTPPSQMYSAASHFRYRSDPSTRHVSNSTNKSSLHPSPTSLRVAHPIIPQRASPASQSFPSLQDTPSP

binding [2]: binds
B2: Mto2 (protein, UniProt Q9USP7 1-397)
chain: MSEHNYQSDREVAEDPFLNYEASANQLSSNSRESTPRGSPWRAGMRSASLMTEPLEDSMYSDNNYLDNGVSFTKDENPLYSPSWPSLADANVNSMKSNNAIQEHKAAKFVSEKSLEKVSTADNNLVLQELENLRERLNQVELQLSERPSSYLGYHNNLSPYRSPNSYPSLLPSTHSPHSPAPLSTMQTALMRLRTYHPSPIILKPVEQAVNHAITLVNTSPSSVVDALCRSLAELCLGLVQEAIDASILSQQESSNSLDLVRHTPPLNYTSSVDSSPQRMASDSYGRPSLHLNDPFPSVDLQSNELSHHNVRTTLFSDDSRFHSKIHTHSTPPSQMYSAASHFRYRSDPSTRHVSNSTNKSSLHPSPTSLRVAHPIIPQRASPASQSFPSLQDTPSP

binding [3]: binds
B3: Mto2-SZZ (protein, UniProt Q9USP7 1-397)
chain: MSEHNYQSDREVAEDPFLNYEASANQLSSNSRESTPRGSPWRAGMRSASLMTEPLEDSMYSDNNYLDNGVSFTKDENPLYSPSWPSLADANVNSMKSNNAIQEHKAAKFVSEKSLEKVSTADNNLVLQELENLRERLNQVELQLSERPSSYLGYHNNLSPYRSPNSYPSLLPSTHSPHSPAPLSTMQTALMRLRTYHPSPIILKPVEQAVNHAITLVNTSPSSVVDALCRSLAELCLGLVQEAIDASILSQQESSNSLDLVRHTPPLNYTSSVDSSPQRMASDSYGRPSLHLNDPFPSVDLQSNELSHHNVRTTLFSDDSRFHSKIHTHSTPPSQMYSAASHFRYRSDPSTRHVSNSTNKSSLHPSPTSLRVAHPIIPQRASPASQSFPSLQDTPSP
